Data from patent publication US5698571A, “5-HT1F mediated inhibition of neurogenic meningeal extravasation: a method for the treatment of migraine” (Eli Lilly and Company, priority 1994, dated 1997).

System: 5-HT1F mediated inhibition of neuronal protein extravasation
Test: Specificity Index: vasoconstriction relative to 5-HT1F mediated inhibition of neuronal protein extravasation

| Structure (SMILES) | S[…] (RATIO B/A) |
| --- | --- |
| CCN(CC)C1CCc2cccc(Cl)c2C1.Cl (centres unmarked) [Compound IV, 8-chloro-2-diethylamino-1,2,3,4-tetrahydronaphthalene hydrochloride] | 0.01 |
| CN(C)C1CCc2[nH]c3ccc(O)cc3c2C1 (centres unmarked) [Compound V, 6-hydroxy-3-dimethylamino-1,2,3,4-tetrahydrocarbazole] | > 923 |
